Reference: the supplement of paper PMC12282887
These are raw signals, not scaled to a control.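 For antimicrobials the highest concentration approximated the MIC. Most other compounds topped out at 500 µM, and known inducer-like compounds reached up to 1 mM. Inocula for deletion strains were tenfold smaller, and any well growing below 10% of the overall median was considered non-growing.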 Where a SMILES comes first, the peptide text is derived from it. Bridges are numbered along the chain shown (N, C = ends). [ ]: non-standard residue; d: D form. The star is where a group is joined. Ileψ(thiazoline)Cys = CC[C@H](C)[C@H](N)C1=N[C@H](C(=O)*)CS1; dOrn = NCCC[C@@H](N)C(=O)O

Tested on: Escherichia coli BW25113
Assay: growth (OD600 area under curve, 8 h) (OD600 x h); higher = more growth
Procedure: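 E. coli BW25113 reporter strains (wild type, ΔmarA, ΔsoxS, Δrob, each carrying one of 8 lux reporter plasmids) were grown in 40 µl LB in 384-well plates at 37°C, 800 rpm, with each compound at 4 two-fold concentrations, in biological duplicates. Growth is the baseline-corrected OD600 area under the curve over 8 h (0-8 h WT, 1-9 h deletion strains).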

CC[C@H](C)[C@H](N)C1=N[C@H](C(=O)N[C@@H](CC(C)C)C(=O)N[C@H](CCC(=O)O)C(=O)N[C@H](C(=O)N[C@H]2CCCCNC(=O)[C@H](CC(N)=O)NC(=O)[C@@H](CC(=O)O)NC(=O)[C@H](Cc3cnc[nH]3)NC(=O)[C@@H](Cc3ccccc3)NC(=O)[C@H]([C@@H](C)CC)NC(=O)[C@@H](CCCN)NC2=O)[C@@H](C)CC)CS1 [Bacitracin] ({Ileψ(thiazoline)Cys}-L[dE]IK[dOrn]I[dF]H[dD]N; lactam 4-C)
growth
Conditions	reporter plasmid: EVC	reporter plasmid: acrABp	reporter plasmid: marRABp	reporter plasmid: micFp	reporter plasmid: ompFp	reporter plasmid: robp	reporter plasmid: soxSp	reporter plasmid: tolCp
35.6 µg/ml, genetic background: wild type	3.13	2.89	3.08	3.43	2.98	3.18	3.32	3.28
35.6 µg/ml, genetic background: ΔmarA	3.68	4.19	3.47	3.76	3.51	3.73	3.52	3.44
35.6 µg/ml, genetic background: Δrob	3.08	2.645	3.2	3.23	2.75	2.46	3.23	3.22
35.6 µg/ml, genetic background: ΔsoxS	3.51	3.31	3.08	3.13	3.33	2.95	3.31	3.51
71.1 µg/ml, genetic background: wild type	2.89	3.04	3.02	3.19	2.78	2.89	3.19	3.11
71.1 µg/ml, genetic background: ΔmarA	3.45	4.44	3.7	3.6	3.54	3.6	3.29	3.12
71.1 µg/ml, genetic background: Δrob	2.77	2.68	3.02	3.1	2.55	2.36	2.84	2.94
71.1 µg/ml, genetic background: ΔsoxS	3.32	3.01	3.03	3.02	3.11	2.85	3.3	3.29
